Assay results

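A cell-based FRET test of anthrax lethal toxin entry, tracked through the 460 nm emission signal; the cell line is not named here.
Each compound was tested as a concentration series from about 0.0005 to 40 µM.
The number is the fitted AC50 of the 460 nm signal alone; lower values mean a more potent effect. A falling signal goes with compounds filed as inhibitors or cytotoxic, a rising one with activators or fluorescent compounds (inferred from the filed classes).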

Values are in nM.
Common to all entries: measured here: 460 nm channel.
Part of the compounds only, not a random draw; the main read-out is not listed here.
A potency from a partial, single-point or poor curve is only a rough figure.
The first word of each remark tells which way the curve ran; it can be opposite to the aim of the assay.

With COc1ccc2[nH]cc(CCNc3nc(-c4ccc(N(C)C)cc4)nc4ccccc34)c2c1 the assay gave AC50 7943 nM (falling, partial curve).
With COC(=O)[C@@]1(Cc2ccc(OC)cc2)[C@H]2c3cc(C(=O)N4CCCC4)n(CCc4ccc(OC)c(Br)c4)c3C[C@H]2CN1C(=O)c1ccccc1 the assay gave AC50 25118 nM (falling, single point).
With COc1ccccc1CNc1ccnc(-c2ccc3c(c2)OCO3)n1 the assay gave AC50 19952 nM (falling, single point).
With Oc1ccccc1-c1cc(-c2ccc3c(c2)OCCO3)n[nH]1 the assay gave AC50 10000 nM (falling, partial curve).
With CC1=C(C(=O)Nc2ccccc2)C(c2ccc(C)o2)n2ncnc2N1 (configuration not stated) the assay gave AC50 5012 nM (falling, single point).
With COc1cc(NC(=O)c2c(-c3ccccc3Cl)noc2C)c2ncccc2c1 the assay gave AC50 12589 nM (falling, partial curve).
With CCN1CCn2c3c(c4cc(C)ccc42)CCCC31 (configuration not stated) the assay gave AC50 25118 nM (falling, single point).
With Cc1c(O)ccc(C(=O)COc2ccccc2F)c1O the assay gave AC50 12589 nM (falling, single point).
With Cc1noc(C)c1-c1nccc(N2CCOCC2)n1 the assay gave AC50 10000 nM (falling, partial curve).
With Cc1ccc(C)c(N2CCN(C(=O)C3CCCN(S(=O)(=O)c4c(C)noc4C)C3)CC2)c1 (configuration not stated) the assay gave AC50 12589 nM (falling, single point).
With COc1ncc2nc(-c3cccs3)c(=O)n(C)c2n1 the assay gave AC50 12589 nM (rising, partial curve).
With COc1ccc(-n2c(=O)c(C)nc3cnc(N4CCNCC4)nc32)cc1 the assay gave AC50 19952 nM (rising, partial curve).
With O=C(CC(=O)c1cc(Cl)ccc1O)c1ccccc1 the assay gave AC50 10000 nM (falling, partial curve).
With FC(F)(F)c1cc(-c2ccco2)nc(-n2nc(C(F)(F)F)cc2C2CC2)n1 the assay gave AC50 31.62 nM (falling, full curve, poor fit).
With O=C(CSc1nc(-c2ccccc2Cl)ns1)NCc1ccco1 the assay gave AC50 25118 nM (rising, single point).
With CC(=O)c1cccc(NC(=O)c2nccnc2C(=O)O)c1 the assay gave AC50 31622 nM (falling, single point).
With Cn1c2c(c3ccccc31)CCNCC2 the assay gave AC50 3981 nM (rising, single point).
With CCNc1ncc2nc(-c3cccs3)c(=O)n(CCC#N)c2n1 the assay gave AC50 12589 nM (rising, partial curve).
With COc1ccccc1CNc1nc(-c2c(C)noc2C)nc2ccccc12 the assay gave AC50 3162 nM (falling, full curve).
With COC(=O)[C@@]1(Cc2ccc(F)cc2)[C@H]2c3cc(C(=O)N4CCCC4)n(CCc4c[nH]c5ccc(OC)cc45)c3C[C@H]2CN1C(=O)c1ccccc1 the assay gave AC50 3162 nM (rising, single point).
With COc1ccc2[nH]c3c(=O)n(Cc4ccco4)cnc3c2c1 the assay gave AC50 3.981 nM (rising, full curve, poor fit).
With Cc1cc(C(=O)COC(=O)CN(C)S(=O)(=O)c2ccc(Cl)cc2)c(C)n1Cc1cccs1 the assay gave AC50 25118 nM (rising, single point).
With Cc1c(-c2nc(N)nc(Nc3ccccc3F)n2)oc2ccccc12 the assay gave AC50 10000 nM (falling, single point).
With COc1ccc(-n2c(=O)cnc3cnc(N(C)C)nc32)cc1 the assay gave AC50 6310 nM (falling, partial curve).
With CCc1ccc2c(COC(=O)c3n[nH]c4ccccc34)cc(=O)oc2c1 the assay gave AC50 31622 nM (falling, single point).
With COc1ccc(-c2nc3cnc(N4CCN(C)CC4)nc3n(C3CC3)c2=O)cc1 the assay gave AC50 10000 nM (rising, partial curve).
With O=C(CCc1nc(-c2ccccc2)no1)NCc1ccco1 the assay gave AC50 3162 nM (falling, single point).
With COc1ccc(OC)c(Nc2nc(-c3sc(C)nc3C)cs2)c1 the assay gave AC50 12589 nM (falling, partial curve).
With S=C1NCN2CCN(CC2)CNC(=S)C(=S)NCN2CCN(CC2)CNC1=S the assay gave AC50 1000 nM (falling, single point).

The first 2 entries again:

For COc1ccc2[nH]cc(CCNc3nc(-c4ccc(N(C)C)cc4)nc4ccccc34)c2c1 the result was AC50 7943 nM (falling, partial curve).
For COC(=O)[C@@]1(Cc2ccc(OC)cc2)[C@H]2c3cc(C(=O)N4CCCC4)n(CCc4ccc(OC)c(Br)c4)c3C[C@H]2CN1C(=O)c1ccccc1 the result was AC50 25118 nM (falling, single point).

Source: PubChem BioAssay AID912 (NCATS, 2007).